PubChem BioAssay AID1224828 – NIAID, 2016
Test: 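Regulators linking TLR4 signalling to p65 nuclear translocation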 (primary screen). System: mouse RAW264.7 G9 macrophage reporter cells (GFP-p65, Tnf promoter-mCherry). Reagents: siRNA pool against mouse genes, 100 nM. Timing: 2 days siRNA transfection, then 40 min LPS before fixation. Challenge: LPS (Salmonella minnesota R595) at 10 ng/ml. Detection: 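Microscopy ratio of nuclear to perinuclear-ring GFP-p65 signal, scaled to the plate median; gene score is the average of two replicate robust z-scores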. Reading the numbers: p65 translocation robust z-score: higher = more nuclear NF-kappaB p65 after LPS than the plate median; nuclear/cytoplasmic p65 ratio: higher = more nuclear NF-kappaB p65. Call rule: 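Active if robust z is above 3.3 (negative regulators) or below -1.56, the Tlr4 control median (positive regulators); activity score 50 or more; control wells not called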. Calls: active = hit (p65 shift raised or lowered); inactive = no clear change.
The whole screen tested about 17,000 reagents; this is an unselected part. 762 of all reagents (4.5%) count as active. 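Active calls include both raised and lowered p65 entry, mostly lowered; wells with fewer than 50 cells lack a z-score.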 Raw values are not corrected between plates. Reagents against one gene are numbered here.

Target gene | pool no. | p65 translocation robust z-score | nuclear/cytoplasmic p65 ratio, rep 1 | nuclear/cytoplasmic p65 ratio, rep 2 | low cell count flag | Call
Paqr4 | 1 | – | 1.25 | 1.35 | fewer than 50 cells per well; well left out of scoring | inactive
Tsc1 | 1 | -0.31 | 1.46 | 1.47 | enough cells to score | inactive
Ldhd | 1 | 0.46 | 1.58 | 1.53 | enough cells to score | inactive
P3h3 | 1 | 0.99 | 1.81 | 1.74 | enough cells to score | inactive
Ctnna3 | 1 | 1.59 | 1.8 | 1.47 | enough cells to score | inactive
Slc7a14 | 1 | -0.14 | 1.45 | 1.47 | enough cells to score | inactive
Cacnb2 | 1 | 0.3 | 1.61 | 1.86 | enough cells to score | inactive
Ifna7 | 1 | 0.51 | 1.49 | 1.45 | enough cells to score | inactive
Gjb4 | 1 | -1.75 | 1.34 | 1.17 | enough cells to score | active
Nemp1 | 1 | -0.34 | 1.44 | 1.79 | enough cells to score | inactive

Continued, starting with the last 3 of the part before.
Target gene | pool no. | p65 translocation robust z-score | nuclear/cytoplasmic p65 ratio, rep 1 | nuclear/cytoplasmic p65 ratio, rep 2 | low cell count flag | Call
Ifna7 | 1 | 0.51 | 1.49 | 1.45 | enough cells to score | inactive
Gjb4 | 1 | -1.75 | 1.34 | 1.17 | enough cells to score | active
Nemp1 | 1 | -0.34 | 1.44 | 1.79 | enough cells to score | inactive
Trim30d | 1 | 0.76 | 1.84 | 1.65 | enough cells to score | inactive
Wnt8b | 1 | 0.18 | 1.64 | 1.43 | enough cells to score | inactive
Rs1 | 1 | -0.9 | 1.37 | 1.41 | enough cells to score | inactive
Gpatch4 | 1 | 1.64 | 1.61 | 1.68 | enough cells to score | inactive
Pde6h | 1 | -1.36 | 1.26 | 1.24 | enough cells to score | inactive
Lmntd1 | 1 | – | 1.31 | 1.35 | fewer than 50 cells per well; well left out of scoring | inactive
Otor | 1 | 1.67 | 1.7 | 1.6 | enough cells to score | inactive
Dpp6 | 1 | -1.54 | 1.4 | 1.04 | enough cells to score | inactive
Dpp6 | 2 | 0.27 | 1.62 | 1.52 | enough cells to score | inactive
Acot9 | 1 | 0.54 | 1.66 | 1.8 | enough cells to score | inactive
Rsu1 | 1 | 0.39 | 1.51 | 1.63 | enough cells to score | inactive
Cenpu | 1 | 0.27 | 1.63 | 1.68 | enough cells to score | inactive
Bcas3 | 1 | -0.89 | 1.34 | 1.37 | enough cells to score | inactive
Gabrb3 | 1 | -0.28 | 1.43 | 1.31 | enough cells to score | inactive
